# Assay results as given in EP1949899A1, “Metal salophen complexes use in prevention and treatment of cancer” (Freie Universität Berlin, priority 2007, dated 2008).
# How the values were obtained:
# Assay type in all cases: cell-based
# [1] = tested on: LNCaP-FGC-cells; assay: Time dependent test (crystal violet assay) on LNCaP-FGC-cells
# Experimental: The time dependent tests were performed according to Reile, H. et al.: "Computerized Determination of Growth Kinetic Curves and Doubling Times from Cells in Microculture", Analytical Biochemistry, 1990, 187 (2): 262-267; Bernhardt, G. et al.: "Standardized kinetic microassay to quantifiy differential chemosensitivity on the basis of proliferative activity", Journal of Research Clin. Oncol., 1992, 118: 35-43 and Gust, R. et al.: "Development of Cobalt(3,4-diarylsalen) Complexes as Tumor Therapeutics", Journal of Medicinal Chemistry, 2004, 47 (24): 5837-5846.
# Determining the cell mass in the crystal violet assay the interpretation of the received values was the following: […]
# [2] = tested on: MDA-MB-231 cells; assay: Time dependent test (crystal violet assay) on MDA-MB-231 cells
# [3] = tested on: MCF-7 cells; assay: Time dependent test (crystal violet assay) on MCF-7 cells
# [4] = tested on: HeLa cells; assay: Time dependent test (crystal violet assay) on HeLa cells
SMILES,time of minimum T/Ccorr- resp. τ-value ([1]; 0.5 µM) [h],time of minimum T/Ccorr- resp. τ-value ([1]; 1 µM) [h],time of minimum T/Ccorr- resp. τ-value ([1]; 5 µM) [h],"time of minimum T/Ccorr- resp. τ-value ([2]; MDA-MB-231, 0.05 µM) [h]","time of minimum T/Ccorr- resp. τ-value ([2]; MDA-MB-231, 0.1 µM) [h]","time of minimum T/Ccorr- resp. τ-value ([2]; MDA-MB-231, 0.5 µM) [h]","time of minimum T/Ccorr- resp. τ-value ([2]; MDA-MB-231, 1 µM) [h]","time of minimum T/Ccorr- resp. τ-value ([3]; MCF-7, 0.05 µM) [h]","time of minimum T/Ccorr- resp. τ-value ([3]; MCF-7, 0.1 µM) [h]","time of minimum T/Ccorr- resp. τ-value ([3]; MCF-7, 0.5 µM) [h]","time of minimum T/Ccorr- resp. τ-value ([3]; MCF-7, 1 µM) [h]",time of minimum T/Ccorr- resp. τ-value ([1]; 0.1 µM) [h],time of minimum T/Ccorr- resp. τ-value ([4]; 0.1 µM) [h],time of minimum T/Ccorr- resp. τ-value ([4]; 0.5 µM) [h],time of minimum T/Ccorr- resp. τ-value ([4]; 1 µM) [h]
N.N.O=C([O-])C1(C(=O)[O-])CCC1.[Pt+2] [Carboplatin],73,46,73,–,–,–,–,–,–,–,–,–,–,–,–
"[Fe+2].[O-]c1ccccc1C=Nc1ccccc1N=Cc1ccccc1[O-] [Fe(II)salophen, [N,N'-Bis(salicylidene)phenylene-1,2-diamine]-iron(II)]",95,160,–,49,71,47,47,71,71,71,138,69,–,–,–
"[Cl-].[Fe+3].[O-]c1ccccc1C=Nc1ccccc1N=Cc1ccccc1[O-] [Fe(III)salophen chloride, [N,N'-Bis(salicylidene)phenylene-1,2-diamine]-iron(III)-chloride]",90,90,–,53,69,122,53,166,72,72,166,71,51,51,77
O=C1[O][Pt]2([NH][C@@H]3CCCC[C@H]3[NH]2)[O]C1=O [Oxaliplatin],124,124,98,–,–,–,–,–,–,–,–,–,–,–,–
"N.N.[Cl][Pt][Cl] [cisplatin, reference compound]",98,124,124,–,–,72,72,–,–,172,172,–,–,72,91
